Measured values taken from patent US7700636B2, “Thiadiazole compounds and methods of use” (Amgen Inc., priority 2004, dated 2010).
Some entries share one result that the patent states for a list of compounds.

The chains behind the UniProt entries cited, without tags or fusion partners. Residues count along the entry.
UniProt P31749, 118-480 limits assumed: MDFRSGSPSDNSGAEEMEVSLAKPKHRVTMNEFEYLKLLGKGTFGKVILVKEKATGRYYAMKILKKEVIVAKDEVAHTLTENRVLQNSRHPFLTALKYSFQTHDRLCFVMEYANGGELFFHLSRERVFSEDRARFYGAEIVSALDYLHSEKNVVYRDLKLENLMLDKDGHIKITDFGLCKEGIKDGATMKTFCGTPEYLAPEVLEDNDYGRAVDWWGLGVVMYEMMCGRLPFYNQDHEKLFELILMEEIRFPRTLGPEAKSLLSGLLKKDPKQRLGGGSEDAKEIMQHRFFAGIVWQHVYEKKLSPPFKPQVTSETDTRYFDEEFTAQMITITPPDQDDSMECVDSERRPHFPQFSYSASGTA

Experiments:
[1] = target: T1, PKBα (Homo sapiens, UniProt P31749); assay: PKB kinase assay (P33-labeled ATP, peptide substrate, filter plate); type: biochemical; conditions: full length PKBα and PKBα kinase domain with pleckstrin domain (amino acids 1-117) deleted
T1 construct: fused on or other part: Probably a His tag on the vendor's proteins

[2] = tested on: PKB; assay: PKB activity in cells: phosphorylation of PKB substrates FKHRL1, GSK3a/b and Tuberin by immunoassay in MDA-MB-468; type: cell-based; conditions: PTEN null human breast tumor cell line MDA-MB-468; phospho-FKHRL1, GSK3a/b, Tuberin; read-out: PKB kinase activity IC50 in cells

SMILES | IC50 [1] | IC50 [2]
N[C@H](CNc1nnc(-c2ccc3[nH]nc(-c4ccccc4)c3c2)s1)Cc1ccccc1 [Example 124, N-((S)-2-amino-3-phenylpropyl)-5-(3-phenyl-1H-indazol-5-yl)-1,3,4-thiadiazol-2-amine] | < 10 µM | < 10 µM
Cc1n[nH]c2ccc(-c3nnc(NC[C@@H](N)CCc4ccccc4)s3)cc12 [Example 32, (S)-N-[5-(3-Methyl-1H-indazol-5-yl)-[1,3,4]thiadiazol-2-yl]-4-phenyl-butane-1,2-diamine] | < 10 µM | < 10 µM
CCCN(CCC)C(CNc1nnc(-c2ccc3[nH]nc(C)c3c2)s1)Cc1cccc(C(F)(F)F)c1 (centres unmarked) [Example 136, N-(1-(5-(3-methyl-1H-indazol-5-yl)-1,3,4-thiadiazol-2-ylamino)-3-(3-(trifluoromethyl)phenyl)propan-2-yl)-N-propylpropane-1-aminium 2,2,2-trifluoroacetate] | < 10 µM | < 10 µM
Cc1ccccc1C[C@H](N)CNc1nnc(-c2ccc3[nH]nc(C)c3c2)s1 [Example 36, (S)-N-[5-(3-Methyl-1H-indazol-5-yl)-[1,3,4]thiadiazol-2-yl]-3-o-tolyl-propane-1,2-diamine] | < 10 µM | < 10 µM
Cc1n[nH]c2ccc(-c3nnc(NC[C@@H](N)Cc4ccc(Cl)cc4Cl)s3)cc12 [Example 63, N-((S)-2-amino-3-(2,4-dichlorophenyl)propyl)-5-(3-methyl-1H-indazol-5-yl)-1,3,4-thiadiazol-2-amine] | < 10 µM | < 10 µM
Cc1n[nH]c2ccc(-c3nnc(NC[C@@H](N)Cc4ccc(Cl)c(Cl)c4)s3)cc12 [Example 18, (S)-3-(3,4-Dichloro-phenyl)-N-[5-(3-methyl-1H-indazol-5-yl)-[1,3,4]thiadiazol-2-yl]-propane-1,2-diamine] | < 10 µM | < 10 µM
Cc1cc2[nH]ncc2cc1-c1nnc(NC[C@@H](N)Cc2ccc(Cl)cc2Cl)s1 [Example 95, N-((S)-2-amino-3-(2,4-dichlorophenyl)propyl)-5-(6-methyl-1H-indazol-5-yl)-1,3,4-thiadiazol-2-amine] | < 10 µM | < 10 µM
Cc1ccc(C[C@H](N)CNc2nnc(-c3ccc4[nH]ncc4c3)s2)cc1 [Example 79, N-((S)-2-amino-3-p-tolylpropyl)-5-(1H-indazol-5-yl)-1,3,4-thiadiazol-2-amine] | < 10 µM | < 10 µM
Cc1n[nH]c2ccc(-c3nnc(NC[C@@H](N)Cc4csc5ccccc45)s3)cc12 [Example 68, N-((S)-2-amino-3-(benzo[b]thiophen-3-yl)propyl)-5-(3-methyl-1H-indazol-5-yl)-1,3,4-thiadiazol-2-amine] | < 10 µM | < 10 µM
Cc1n[nH]c2ccc(-c3nnc(NC[C@@H](N)C(C)(C)c4ccccc4)s3)cc12 [Example 101, N-((S)-2-amino-3-methyl-3-phenylbutyl)-5-(3-methyl-1H-indazol-5-yl)-1,3,4-thiadiazol-2-amine] | < 10 µM | < 10 µM
COc1ccc(C[C@H](N)CNc2nnc(-c3ccc4[nH]nc(C)c4c3)s2)cc1OC [Example 29, (S)-1-(3,4-Dimethoxy-benzyl)-2-[5-(3-methyl-1H-indazol-5-yl)-[1,3,4]thiadiazol-2-ylamino]-ethyl-ammonium chloride] | < 10 µM | < 10 µM
Cc1n[nH]c2ccc(-c3nnc(NC[C@@H](N)Cc4ccc(F)c(F)c4)s3)cc12 [Example 16, (S)-3-(3,4-Difluoro-phenyl)-N-[5-(3-methyl-1H-indazol-5-yl)-[1,3,4]thiadiazol-2-yl]-propane-1,2-diamine] | < 10 µM | < 10 µM
N[C@H](CNc1nnc(-c2cc3cn[nH]c3cn2)s1)Cc1ccc(Cl)cc1Cl [Example 109, N-((S)-2-amino-3-(2,4-dichlorophenyl)propyl)-5-(1H-pyrazolo[3,4-c]pyridin-5-yl)-1,3,4-thiadiazol-2-amine] | < 10 µM | < 10 µM
Cc1n[nH]c2ccc(-c3nnc(NC[C@@H](N)Cc4ccc(F)cc4)s3)cc12 [Example 39, (S)-3-(4-Fluoro-phenyl)-N-[5-(3-methyl-1H-indazol-5-yl)-[1,3,4]thiadiazol-2-yl]-propane-1,2-diamine] | < 10 µM | < 10 µM
Cc1n[nH]c2ccc(-c3nnc(NCC4(N)Cc5ccccc5C4)s3)cc12 [Example 13, (2-Amino-indan-2-ylmethyl)-[5-(3-methyl-1H-indazol-5-yl)-[1,3,4]thiadiazol-2-yl]-amine] | < 10 µM | < 10 µM
CC(=O)N[C@H](CNc1nnc(-c2ccc3cnccc3c2)s1)Cc1ccc(OC(F)(F)F)cc1 [Example 168, N-((S)-1-(5-(isoquinolin-6-yl)-1,3,4-thiadiazol-2-ylamino)-3-(4-(trifluoromethoxy)phenyl)propan-2-yl)acetamide] | < 10 µM | < 10 µM
Cc1n[nH]c2ccc(-c3nnc(NC[C@@H](N)Cc4ccc(C(C)C)cc4)s3)cc12 [Example 62, N-((S)-2-amino-3-(4-isopropylphenyl)propyl)-5-(3-methyl-1H-indazol-5-yl)-1,3,4-thiadiazol-2-amine] | < 10 µM | < 10 µM

SMILES | IC50 [1] | IC50 [2]
CN[C@H](CNc1nnc(-c2ccc3[nH]nc(C)c3c2)s1)Cc1ccc(Cl)cc1 [Example 129, N-((S)-3-(4-chlorophenyl)-2-(methylamino)propyl)-5-(3-methyl-1H-indazol-5-yl)-1,3,4-thiadiazol-2-amine] | < 10 µM | < 10 µM
N[C@H](COc1nnc(-c2ccc3cnccc3c2)s1)Cc1c[nH]c2ccccc12 [Example 3, (2S)-1-(1H-indol-3-yl)-3-(5-(isoquinolin-6-yl)-1,3,4-thiadiazol-2-yloxy)propan-2-amine] | < 10 µM | < 10 µM
Cc1n[nH]c2ccc(-c3nnc(NC[C@@H](N)[C@@H]4CCc5ccccc54)s3)cc12 [Example 170, N-((S)-2-amino-2-((R)-2,3-dihydro-1H-inden-1-yl)ethyl)-5-(3-methyl-1H-indazol-5-yl)-1,3,4-thiadiazol-2-amine] | < 10 µM | < 10 µM
Cc1n[nH]c2ccc(-c3nnc(NC[C@@H]4Cc5c([nH]c6ccccc56)CN4)s3)cc12 [Example 33, (S)-[5-(3-Methyl-1H-indazol-5-yl)-[1,3,4]thiadiazol-2-yl]-(2,3,4,9-tetrahydro-1H-β-carbolin-3-ylmethyl)-amine] | < 10 µM | < 10 µM
Cc1n[nH]c2ccc(-c3nnc(NCC(Cc4cccc(C(F)(F)F)c4)NCc4cccc(C(F)(F)F)c4)s3)cc12 (centres unmarked) [Example 143, N-(3-(trifluoromethyl)benzyl)-1-(5-(3-methyl-1H-indazol-5-yl)-1,3,4-thiadiazol-2-ylamino)-3-(3-(trifluoromethyl)phenyl)propan-2-aminium 2,2,2-trifluoroacetate] | < 10 µM | < 10 µM
N[C@H](CNc1nnc(-c2ccc3[nH]ncc3c2)s1)C1Cc2ccccc2C1 [Example 157, N-((S)-2-amino-2-(2,3-dihydro-1H-inden-2-yl)ethyl)-5-(1H-indazol-5-yl)-1,3,4-thiadiazol-2-amine] | < 10 µM | < 10 µM
Cc1n[nH]c2ccc(-c3nnc(NC[C@@H](N)Cc4c[nH]c5ccccc45)s3)cc12 [Example 5, S-3-(1H-Indol-3-yl)-N-[5-(3-methyl-1H-indazol-5-yl)-[1,3,4]thiadiazol-2-yl]-propane-1,2-diamine] | < 10 µM | < 10 µM
Cc1n[nH]c2ccc(-c3nnc(NC[C@@H](N)Cc4cnc[nH]4)s3)cc12 [Example 52, N-((S)-2-amino-3-(1H-imidazol-5-yl)propyl)-5-(3-methyl-1H-indazol-5-yl)-1,3,4-thiadiazol-2-amine] | < 10 µM | < 10 µM
Cc1cc2[nH]ncc2cc1-c1nnc(NC[C@@H](N)Cc2ccccc2)s1 [Example 99, N-((S)-2-amino-3-phenylpropyl)-5-(6-methyl-1H-indazol-5-yl)-1,3,4-thiadiazol-2-amine] | < 10 µM | < 10 µM
Nc1nnc(-c2ccc3[nH]ncc3c2)s1 [Example 69, 5-(1H-indazol-5-yl)-1,3,4-thiadiazol-2-amine] | < 10 µM | < 10 µM
Cc1n[nH]c2ccc(-c3nnc(NC[C@@H](N)Cc4cccc5ccccc45)s3)cc12 [Example 64, N-((S)-2-amino-3-(naphthalen-1-yl)propyl)-5-(3-methyl-1H-indazol-5-yl)-1,3,4-thiadiazol-2-amine] | < 10 µM | < 10 µM
N[C@H](CNc1nnc(-c2ccc3cnccc3c2)s1)Cc1ccc(Cl)cc1Cl [Example 149, N-((S)-2-amino-3-(2,4-dichlorophenyl)propyl)-5-(isoquinolin-6-yl)-1,3,4-thiadiazol-2-amine] | < 10 µM | < 10 µM
COc1ccccc1C[C@H](N)CNc1nnc(-c2ccc3[nH]nc(C)c3c2)s1 [Example 27, (S)-1-(2-Methoxy-benzyl)-2-[5-(3-methyl-1H-indazol-5-yl)-[1,3,4]thiadiazol-2-ylamino]-ethyl-ammonium chloride] | < 10 µM | < 10 µM
CNC1(CNc2nnc(-c3ccc4[nH]nc(C)c4c3)s2)CCc2ccccc2C1 (centres unmarked) [Example 9, (2-Methylamino-1,2,3,4-tetrahydro-naphthalen-2-ylmethyl)-[5-(3-methyl-1H-indazol-5-yl)-[1,3,4]thiadiazol-2-yl]-amine] | < 10 µM | < 10 µM
CCc1ccc(C[C@H](N)CNc2nnc(-c3ccc4[nH]nc(C)c4c3)s2)cc1 [Example 25, (S)-2-(4-Ethyl-phenyl)-1-{[5-(3-methyl-1H-indazol-5-yl)-[1,3,4]thiadiazol-2-ylamino]-methyl}-ethyl-ammonium trifluoro-acetate] | < 10 µM | < 10 µM
Nc1nnc(-c2ccc3[nH]nc(-c4ccccc4)c3c2)s1 [Example 121, 5-(3-phenyl-1H-indazol-5-yl)-1,3,4-thiadiazol-2-amine] | < 10 µM | 
